Reference: patent US9784746B2, “Method for studying transport of an agent across a bilayer membrane in bioanalytical sensor applications” (Bio-Rad Laboratories, Inc., priority 2008, dated 2017)

Legend:
[1] = Melittin binding to tethered POPC liposomes (Biacore SPR); settings: data not shown
Procedure: Liposomes were made by first evaporating the solvent, chloroform, from the POPC lipids using a flow of nitrogen gas. The dried lipids were then kept under the flow of nitrogen gas for at least one hour after which HEPES-2 was added to yield a 4 mg/ml concentration of POPC. The dissolved POPC lipids were vortexed for at least 30 min to yield multi-laminar liposomes. Uni-laminar liposomes were produced using a mini extruder and polycarbonate membranes with pore size of 50 nm from Avanti Polar Lipids® with a 50 nm pore size. […] The liposomes were stored under nitrogen gas at 4° C. until use (within 2 days).
A mixture (300 μl) of HS-PEG (200 μg/ml) and HS-PEG-Biotin (20 μg/ml), dissolved in HEPES-2, were injected over the Biacore® Au sensor chip at a flow rate of 5 μl/min. Then a mixture (150 μl) of NeutrAvidin (40 μg/ml) and Biotin-DNA (0.7 μM) was injected and bound to HS-PEG-Biotin at the surface.
POPC liposomes (2 mg/ml, in HEPES-2) containing cholesterol-DNA tags (3 DNA tags per liposome) were injected at a flow rate of 5 μl/min. The end of the DNA-part of the cholesterol-DNA tag is single-stranded and complementary in sequence to the Biotin-DNA at the surface enabling tethering of the liposomes to the sensor surface.
The reversible binding of melittin was measured in the Biacore® instrument directly after the tethering of POPC liposomes was finished. […]

[2] = Melittin pore mediated sucrose uptake into tethered liposomes (SPR refractive index); format: physicochemical; settings: 0.1 M sucrose after 40 μM melittin
Procedure: After tethering of NeutrAvidin/Biotin-DNA the following injections were made in sequential order; 0.1 M sucrose, 2 mg/ml cholesterol-DNA tagged POPC-liposomes, 0.1 M sucrose, 40 μM melittin, 0.1 M sucrose, 0.1 M sucrose, 0.1 M sucrose. All samples were dissolved in HEPES-2.
A simple method for real-time and label-free uptake measurements of analytes across membranes at a biosensor surface would be of great value when investigating for example membrane transporters. Here we wanted to test if it was possible to measure the uptake of an analyte, sucrose, through the melittin pore by simply detecting the change in refractive index of the solution inside the liposome caused by the analyte as it is taken up.
Adding sucrose changes the refractive index of the solution in the detection volume, i.e. the volume corresponding to the evanescent field above the sensor surface, which is manifested as a shift in RU. […]
The amplitude of the uptake decrease from S3 to S5, which is explained by a decreasing number of liposomes having pores. […] The expected RU of the 7400 sucrose molecules (0.1 M) inside the liposome can be calculated from the obtained response of immobilizing the liposome itself (RU=6790). […] Since only ˜85% of the liposomes have pores the expected value is 480/0.85≈560 RU, which is in good agreement with the measured response of 530 RU from the S3 injection.

SMILES	Unspecific binding (to biosensor surface without liposomes) relative to binding to the liposome membrane surface [1]	measured response from the S3 injection [2] [RU]
CC[C@H](C)[C@H](NC(=O)CN)C(=O)NCC(=O)N[C@@H](C)C(=O)N[C@H](C(=O)N[C@@H](CC(C)C)C(=O)N[C@@H](CCCCN)C(=O)N[C@H](C(=O)N[C@@H](CC(C)C)C(=O)N[C@H](C(=O)N[C@H](C(=O)NCC(=O)N[C@@H](CC(C)C)C(=O)N1CCC[C@H]1C(=O)N[C@@H](C)C(=O)N[C@@H](CC(C)C)C(=O)N[C@H](C(=O)N[C@@H](CO)C(=O)N[C@@H](Cc1c[nH]c2ccccc12)C(=O)N[C@H](C(=O)N[C@@H](CCCCN)C(=O)N[C@@H](CCCNC(=N)N)C(=O)N[C@@H](CCCCN)C(=O)N[C@@H](CCCNC(=N)N)C(=O)N[C@@H](CCC(N)=O)C(=O)N[C@@H](CCC(N)=O)C(N)=O)[C@@H](C)CC)[C@@H](C)CC)[C@@H](C)O)[C@@H](C)O)C(C)C)C(C)C [melittin]	less than 5%	
OC[C@H]1O[C@@](CO)(O[C@H]2O[C@H](CO)[C@@H](O)[C@H](O)[C@H]2O)[C@@H](O)[C@@H]1O [sucrose]		530
